# Assay results published in the supplement of paper PMC12889115.
# Some of the results follow. These are raw signals, not scaled to a control.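 Primary screen: polymyxin B was added at a level permeabilizing Salmonella outer membranes while sparing inner membranes. DMSO wells, both with and without polymyxin B, established maximum growth. Plate-to-plate variation meant each plate was ranked on its own, and the lowest-OD600 compounds were selected as hits.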
# Test system: Salmonella enterica serovar Typhimurium SL1344
# Assay: bacterial growth OD600 after 18 h with compound and polymyxin B; higher = more bacterial growth (less inhibition)
# Conditions: 50 µM, Mueller-Hinton broth
Compound,bacterial growth OD600 (polymyxin B 1 µg/mL),bacterial growth OD600 (polymyxin B 0.75 µg/mL)
COC(=O)CCC(=O)N1CCCC(C(=O)Nc2ccc(-c3cccc(F)c3)cc2)C1 (centres undefined),1.1,
COc1ccc(CC2(CCC(=O)NCC(C)(C)CO)CCC(=O)N2)c2ccccc12 (centres undefined),,0.769
COc1ccc(CN2CC[C@@H](N3CCCCCC3)[C@H](O)C2)cc1C,,0.763
CC(C)N(C)c1ccc(C(=O)N2CCCCC2CCn2cccn2)cn1 (centres undefined),0.017,
CCC(C)CNC(=O)C1CCN(c2nc(C)c3ccc(S(C)(=O)=O)cc3n2)CC1 (centres undefined),,0.866
COc1cccc(-c2nn(-c3ccccc3)cc2CNCC2(C)COC2)c1,0.893,
CCc1ccc(CN(C)C(=O)CCC2(Cc3ccc(C)cc3)CCC(=O)N2)cc1 (centres undefined),,0.029
Cc1cccc(CNC(=O)C2CC23CCN(C(=O)c2cc(F)cc(F)c2)CC3)n1 (centres undefined),,0.879
Cc1cccc(C2CCCN(C(=O)CCC3(Cc4ccc(Cl)cc4)CCC(=O)N3)C2)c1 (centres undefined),,0.032
O=C(CCn1cccn1)N1CCC(C2CCN(Cc3cccnc3)CC2)C1 (centres undefined),0.929,
O=C(c1coc(COc2cccc3cnccc23)n1)N1CC[C@@H]2CCCC[C@H]2C1,0.001,
NC(=O)CCC(=O)N1CCCC1C(=O)Nc1cccc(-c2ccc(F)cc2)c1 (centres undefined),0.896,
CCN(Cc1ccncc1)C(=O)c1cc(COc2c(C)cccc2C)on1,0.894,
CCOC(=O)N1CCN(c2nc3nonc3nc2N2CCCCCC2)CC1,1.03,
COC(=O)[C@@H]1CCCN1C(=O)Cc1ccc(N2CCC(NCc3nonc3C)CC2)cc1,,0.837
Cc1nn(C)c(Cl)c1CN1CCOc2ccc(C(O)Cc3ccccc3)cc2C1 (centres undefined),,0.897
COC(c1ccc2c(c1)CN(C(=O)c1cccc(Cn3cccn3)c1)CCO2)C1CCCCC1 (centres undefined),,0.028
CCOC(=O)C1(Cc2ccccc2)CCCN(Cc2ccc(NC(C)=O)cc2)C1 (centres undefined),0.015,
CC(=O)c1cccc(OCc2cc(C(=O)N3CCCCC3CO)n[nH]2)c1 (centres undefined),0.936,

# Looked up one by one from above, 2 records:
Compound,bacterial growth OD600 (polymyxin B 1 µg/mL),bacterial growth OD600 (polymyxin B 0.75 µg/mL)
COc1ccc(CC2(CCC(=O)NCC(C)(C)CO)CCC(=O)N2)c2ccccc12 (centres undefined),,0.769
CCc1ccc(CN(C)C(=O)CCC2(Cc3ccc(C)cc3)CCC(=O)N2)cc1 (centres undefined),,0.029
